Values of other authors in patent US8071760B2, “Boron-containing porphyrin compounds and their uses” (Board of Supervisors of Louisiana State University and …, priority 2005, dated 2011).
At least one structure is not confirmed: it was looked up by name or label, or the drawing left a doubt.

Settings: patients with glioblastomas and melanomas, clinical trials; cited from earlier work

Structure (SMILES): N[C@@H](Cc1ccc(B(O)O)cc1)C(=O)O [BPA, L-4-dihydroxy-borylphenylalanine]
- tumor: blood boron concentration ratio: about 3:1
